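293T-iDUX4 dual-reporter cells; luminescence of the tet-on Italica luciferase control is read after 24 h.
The test concentration is not given here.
Percent change in the Italica control signal; more negative values mean stronger inhibition, which points to nonspecific, tet-on or cytotoxic effects.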

Values are in %.
Common to all entries: measured here: Italica tet-on control reporter.
Part of the compounds only, not a random draw; the main read-out is not listed here.

Result for COc1ccc(-c2ccc(C3[C@@H]4CN(C(=O)c5ccc(F)cc5)C[C@H]3N4)cc2)cc1 (some centres undefined) was activity change -11.44%.
Result for C[C@@H](NC(=O)C[C@@H]1C[C@@H]2c3cc(NC(=O)Nc4ccccc4F)ccc3O[C@@H]2[C@@H](CO)O1)c1ccccc1 was activity change -16.86%.
Result for O=C(C[C@H]1C[C@@H]2c3cc(NC(=O)c4cccnc4)ccc3O[C@@H]2[C@@H](CO)O1)NCc1cc(F)ccc1F was activity change -8.954%.
Result for C/C=C/c1ccc2c(c1)[C@@H]1[C@@H](CCN1S(=O)(=O)c1ccccc1C)[C@H](CO)N2 was activity change -5.359%.
Result for COc1ccccc1CNC(=O)C[C@@H]1C[C@H]2c3cc(NC(=O)Nc4ccc(C(F)(F)F)cc4)ccc3O[C@H]2[C@@H](CO)O1 was activity change -25.91%.
Result for C[C@H](CO)N1C[C@H](C)[C@@H](CN(C)Cc2ccc(F)cc2)OCc2ccccc2-c2c(n(C)c3ccccc23)C1=O was activity change -16.16%.
Result for CCC(=O)Nc1ccc2c(c1)OC[C@H](C)N(Cc1ccccc1)C[C@@H](C)[C@@H](OC)CN(C)C2=O was activity change -3.508%.
Result for C[C@H](C(=O)N(C)C[C@@H]1OCc2ccccc2-c2c(n(C)c3ccccc23)C(=O)N([C@@H](C)CO)C[C@@H]1C)c1ccccc1 was activity change -97.57%.
Result for N#Cc1ccc(-c2ccc([C@@H]3[C@@H](CO)N4CCCCN(C(=O)Nc5ccc(F)cc5)C[C@@H]34)cc2)cc1 was activity change -15.74%.
Result for C[C@H]1CN([C@@H](C)CO)C(=O)c2c(c3ccccc3n2C)-c2ccccc2CO[C@@H]1CN(C)C(=O)[C@H]1CCCN1C was activity change 2.06%.
Result for COc1ccc2c3c(n(C)c2c1)[C@H](CO)N(C(=O)Nc1ccc(F)cc1)CC31CCN(C)CC1 was activity change -4.621%.
Result for O=S(=O)(c1ccccc1F)N1CC[C@@H]2[C@H](CO)Nc3ccc(-c4ccccc4F)cc3[C@@H]21 was activity change -31.28%.
Result for CC(C)NC(=O)N1CCCCN2[C@@H](CO)[C@@H](c3ccc(C#Cc4ccccc4F)cc3)[C@@H]2C1 was activity change -21.32%.
Result for C[C@H]1CN([C@@H](C)CO)C(=O)c2ccccc2-c2ccccc2CO[C@H]1CN(C)Cc1ccc(F)cc1 was activity change -22.58%.
Result for O=C(C[C@H]1CC[C@H]2[C@@H](COC[C@@H](O)CN2Cc2ccc(C(F)(F)F)cc2)O1)NCCc1ccccc1 was activity change -21.57%.
Result for COc1ccc2c3c([nH]c2c1)[C@@H](CO)N(Cc1cc(F)ccc1F)CC31CCN(C(=O)CN(C)C)CC1 was activity change -20%.
Result for CCC(=O)Nc1ccc2c(c1)OC[C@@H](C)N(Cc1ccccc1F)C[C@H](C)[C@H](OC)CN(C)C2=O was activity change -5.833%.
Result for CN1c2ccc(-c3cccc(C#N)c3)cc2[C@H]2[C@H](CCN2C(=O)Nc2cc(F)ccc2F)[C@H]1CO was activity change -18.41%.
Result for CN1CCN(C(=O)C[C@H]2C[C@H]3c4cc(NC(=O)Nc5ccc(C(F)(F)F)cc5)ccc4O[C@H]3[C@H](CO)O2)CC1 was activity change -9.111%.
Result for COc1ccc(C#Cc2ccc([C@@H]3[C@@H](CO)N4C(=O)CN(C(=O)c5ccc(F)cc5)C[C@@H]34)cc2)cc1 was activity change -12.01%.
Result for COc1ccccc1S(=O)(=O)N1CC[C@H]2[C@H](CO)Nc3ccc(-c4ccccc4)cc3[C@H]21 was activity change -56.5%.
Result for C[C@H](CO)N1C[C@H](C)[C@H](CN(C)Cc2ccc(-c3ccccc3)cc2)OCc2cnnn2CCCC1=O was activity change -31.53%.
Result for O=C(C1CCC1)N1CC2(C1)[C@@H](c1ccccc1)[C@@H](CO)N2Cc1ccccc1F was activity change -8.455%.
Result for COc1cccc(C#Cc2ccc([C@@H]3[C@@H](CO)N4C(=O)CN(C(=O)c5ccccc5)C[C@@H]34)cc2)c1 was activity change -17.95%.
Result for N#C[C@H]1[C@H](c2ccc(-c3ccccc3F)cc2)[C@H](CO)N1C(=O)C1CCC1 was activity change -14.51%.
Result for COc1ccccc1CN1CC2(C1)[C@H](c1ccccc1)[C@H](CO)N2Cc1ccccc1 was activity change -27.5%.
Result for COc1ccc(NC(=O)N2CC(=O)N3[C@H](CO)[C@H](c4ccc(/C=C/c5ccccc5)cc4)[C@@H]3C2)cc1 was activity change -9.877%.
Result for C[C@@H]1CN([C@@H](C)CO)C(=O)c2c(c3ccccc3n2C)-c2ccccc2CO[C@@H]1CN(C)S(=O)(=O)c1ccc([N+](=O)[O-])cc1 was activity change -36.29%.
Result for COc1ccccc1NC(=O)N[C@@H]1CC[C@@H](CC(=O)N2CCC(Cc3ccccc3)CC2)O[C@@H]1CO was activity change -12.78%.
Result for COc1ccc2c3c([nH]c2c1)[C@@H](CO)N(Cc1cccc(Cl)c1)CC31CN(C(C)=O)C1 was activity change -77.96%.
Result for CO[C@H]1CN(C)C(=O)c2ccc(NC(=O)Nc3cccc(Cl)c3)cc2OC[C@H](C)NC[C@H]1C was activity change -14.29%.
Result for CCCC#Cc1ccc([C@H]2[C@@H](CO)N3CCCCN(S(=O)(=O)Cc4ccccc4)C[C@@H]23)cc1 was activity change -0.9088%.
Result for Cc1ccc(-c2ccc([C@@H]3[C@H](CO)N4CCCCN(S(=O)(=O)c5ccccc5C)C[C@@H]34)cc2)cc1 was activity change -37.79%.
Result for O=C(C[C@@H]1CC[C@@H]2[C@H](COC[C@H](O)CN2S(=O)(=O)c2ccccc2)O1)NCc1ccc(-c2ccccc2)cc1 was activity change -24.92%.
Result for O=C(C[C@H]1CC[C@@H]2[C@H](COC[C@H](O)CN2Cc2cc(F)ccc2F)O1)N[C@@H]1CCN(Cc2ccccc2)C1 was activity change -8.156%.
Result for CN1c2ccc(-c3cccc(F)c3)cc2[C@H]2[C@H](CCN2C(=O)c2ccc3c(c2)OCO3)[C@H]1CO was activity change -24.04%.
Result for C[C@@H]1CN([C@H](C)CO)S(=O)(=O)c2ccc(/C=C/c3ccccc3)cc2O[C@H]1CN(C)C(=O)NC1CCCCC1 was activity change -38.22%.
Result for COc1ccc(C#Cc2ccc([C@@H]3[C@H]4CN(C(=O)NC(C)C)CC(=O)N4[C@H]3CO)cc2)cc1 was activity change -23.71%.
Result for O=C(CN1CCOCC1)N1CCCCN2[C@H](C1)[C@H](c1ccc(/C=C/c3ccccc3)cc1)[C@@H]2CO was activity change -12.43%.
Result for Cc1ccccc1-c1ccc([C@@H]2[C@@H](CO)N3CCCCN(C(=O)Nc4cccc(F)c4)C[C@H]23)cc1 was activity change -76.01%.
Result for O=C(C[C@@H]1CC[C@H]2[C@@H](COC[C@H](O)CN2Cc2cccc(Cl)c2)O1)NCc1cccc(F)c1 was activity change -20.08%.

The last 5 entries again:

structure	activity change (%)
C[C@@H]1CN([C@H](C)CO)S(=O)(=O)c2ccc(/C=C/c3ccccc3)cc2O[C@H]1CN(C)C(=O)NC1CCCCC1	-38.22
COc1ccc(C#Cc2ccc([C@@H]3[C@H]4CN(C(=O)NC(C)C)CC(=O)N4[C@H]3CO)cc2)cc1	-23.71
O=C(CN1CCOCC1)N1CCCCN2[C@H](C1)[C@H](c1ccc(/C=C/c3ccccc3)cc1)[C@@H]2CO	-12.43
Cc1ccccc1-c1ccc([C@@H]2[C@@H](CO)N3CCCCN(C(=O)Nc4cccc(F)c4)C[C@H]23)cc1	-76.01
O=C(C[C@@H]1CC[C@H]2[C@@H](COC[C@H](O)CN2Cc2cccc(Cl)c2)O1)NCc1cccc(F)c1	-20.08

Data taken from PubChem BioAssay AID1224904, deposited by Broad Institute (2016).